PubChem BioAssay AID652259, Drosophila RNAi Screening Center, 2013

- Screen: 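Genome-wide hunt for genes that control Wingless pathway activity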 (primary screen)
- Cell system: Drosophila clone 8 imaginal disc epithelial cells
- Reagents: long dsRNA against Drosophila genes
- Conditions: pathway stimulated by co-transfected Wingless expression plasmid
- Measurement: 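Dual luciferase reads per well after Wingless plasmid stimulation: reporter firefly light and Renilla control light; activity is firefly divided by Renilla, a ratio not deposited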
- Direction: firefly reporter light: higher = more Wg reporter light, before normalisation; Renilla control light: higher = more transfected or surviving cells
- Rule for the call: 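Strong candidates differ from their plate mean by at least two out of four per-plate statistical tests; weak candidates meet just one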
- Calls: active = candidate regulator (raises or lowers reporter); inactive = not a candidate
The screen tested about 22,000 reagents; below is an unselected part of those that have a named target and a result. In the full data, 233 (1.1%) are marked active. 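Light values are raw, unnormalised plate reads; the ratio scores behind the reporter calls were not deposited.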 The numbers tell different reagents against one gene apart. No sequences are given here. Not given: the amount of reagent, the time to read-out, the dose of the treatment.

CG32806: reporter change call, replicate 1 = Wg reporter activity raised; firefly reporter light, replicate 1 = 8.42e5; firefly reporter light, replicate 2 = 8.21e5; Renilla control light, replicate 1 = 5.08e5; Renilla control light, replicate 2 = 3.62e5; outcome = inactive
Cp38: firefly reporter light, replicate 1 = 23094; Renilla control light, replicate 1 = 11618; outcome = inactive
CG30471: firefly reporter light, replicate 1 = 13898; Renilla control light, replicate 1 = 4054; outcome = inactive
CG12020: firefly reporter light, replicate 1 = 5289; Renilla control light, replicate 1 = 2534; outcome = inactive
CG9663: firefly reporter light, replicate 1 = 9530; Renilla control light, replicate 1 = 4087; outcome = inactive
CG13937: firefly reporter light, replicate 1 = 5302; Renilla control light, replicate 1 = 803; outcome = inactive
GlcAT-I: firefly reporter light, replicate 1 = 2738; Renilla control light, replicate 1 = 1113; outcome = inactive
Got1: firefly reporter light, replicate 1 = 11092; Renilla control light, replicate 1 = 3511; outcome = inactive
CG13705 #1: firefly reporter light, replicate 1 = 1655; firefly reporter light, replicate 2 = 10476; Renilla control light, replicate 1 = 1488; Renilla control light, replicate 2 = 5365; outcome = inactive
CG13705 #2: firefly reporter light, replicate 1 = 6.78e5; firefly reporter light, replicate 2 = 7.29e5; Renilla control light, replicate 1 = 3.13e5; Renilla control light, replicate 2 = 1.06e5; outcome = inactive
Corin: firefly reporter light, replicate 1 = 3376; firefly reporter light, replicate 2 = 9577; Renilla control light, replicate 1 = 1200; Renilla control light, replicate 2 = 3751; outcome = inactive
Ccdc85: firefly reporter light, replicate 1 = 2429; firefly reporter light, replicate 2 = 5811; Renilla control light, replicate 1 = 573; Renilla control light, replicate 2 = 773; outcome = inactive

Sorted by “Renilla control light, replicate 1” (ascending): some entries from above.
CG13937: firefly reporter light, replicate 1 = 5302; Renilla control light, replicate 1 = 803; outcome = inactive
CG9663: firefly reporter light, replicate 1 = 9530; Renilla control light, replicate 1 = 4087; outcome = inactive
